According to article PMC7661038:
No constants are given. Whether binding was seen depends on the method and setting. In cells and extracts the contact can be indirect. Some entries that bind do so weakly or less than the wild type. For some assays here: Where a sequence is shown, tags or fusion partners need not be part of it.

Chains of the proteins cited; added tags and fusions are not shown.
UniProt Q6XZL8: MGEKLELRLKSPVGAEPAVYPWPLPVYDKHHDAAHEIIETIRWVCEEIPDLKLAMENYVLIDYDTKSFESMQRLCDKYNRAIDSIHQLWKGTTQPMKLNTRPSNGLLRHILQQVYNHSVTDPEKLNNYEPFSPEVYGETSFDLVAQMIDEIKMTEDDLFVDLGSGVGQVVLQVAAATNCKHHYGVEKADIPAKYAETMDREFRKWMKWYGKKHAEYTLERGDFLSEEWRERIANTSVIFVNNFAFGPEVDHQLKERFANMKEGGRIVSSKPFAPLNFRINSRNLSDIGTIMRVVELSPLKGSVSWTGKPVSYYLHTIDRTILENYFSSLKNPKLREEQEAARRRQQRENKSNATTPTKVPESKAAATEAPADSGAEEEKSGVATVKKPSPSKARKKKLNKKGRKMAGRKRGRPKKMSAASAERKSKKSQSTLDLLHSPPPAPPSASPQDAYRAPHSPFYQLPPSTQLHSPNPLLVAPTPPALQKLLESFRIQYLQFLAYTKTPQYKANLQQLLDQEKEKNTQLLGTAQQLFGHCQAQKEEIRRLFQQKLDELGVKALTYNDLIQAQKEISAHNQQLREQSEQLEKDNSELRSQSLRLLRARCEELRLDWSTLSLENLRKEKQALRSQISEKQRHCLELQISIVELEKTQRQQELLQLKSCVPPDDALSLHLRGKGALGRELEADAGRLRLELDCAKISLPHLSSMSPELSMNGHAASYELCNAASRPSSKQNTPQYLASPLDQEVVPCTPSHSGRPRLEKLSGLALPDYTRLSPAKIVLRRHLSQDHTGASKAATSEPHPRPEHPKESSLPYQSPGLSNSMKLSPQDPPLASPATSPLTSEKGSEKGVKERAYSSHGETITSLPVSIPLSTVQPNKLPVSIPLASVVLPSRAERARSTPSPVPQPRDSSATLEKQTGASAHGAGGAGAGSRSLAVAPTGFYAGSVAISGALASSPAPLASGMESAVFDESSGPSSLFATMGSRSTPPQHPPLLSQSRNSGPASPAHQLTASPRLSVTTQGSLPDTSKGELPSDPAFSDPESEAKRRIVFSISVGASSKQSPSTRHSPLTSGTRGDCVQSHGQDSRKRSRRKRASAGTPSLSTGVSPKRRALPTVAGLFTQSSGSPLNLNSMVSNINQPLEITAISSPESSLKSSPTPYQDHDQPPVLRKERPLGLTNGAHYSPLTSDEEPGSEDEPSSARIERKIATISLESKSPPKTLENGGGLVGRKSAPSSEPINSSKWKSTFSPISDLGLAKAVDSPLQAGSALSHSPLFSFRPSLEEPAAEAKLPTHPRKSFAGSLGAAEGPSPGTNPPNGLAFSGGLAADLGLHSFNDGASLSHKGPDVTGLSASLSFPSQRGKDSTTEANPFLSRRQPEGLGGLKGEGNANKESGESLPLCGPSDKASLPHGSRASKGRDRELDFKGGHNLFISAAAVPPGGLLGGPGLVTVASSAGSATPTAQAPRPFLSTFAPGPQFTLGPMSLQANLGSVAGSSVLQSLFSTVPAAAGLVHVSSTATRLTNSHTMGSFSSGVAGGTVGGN

What was measured:
Flag-Zc3h10 (mouse) = biological target: T1, Flag-Zc3h10 (mouse) (UniProt Q8R205); test: co-IP; lysates of HEK293 cells cotransfected with FLAG-tagged Zc3h10 and HA-tagged Dot1l (whole or truncated); IP buffer 20 mM Tris pH 7.4, 150 mM NaCl, 1 mM EDTA, 10% glycerol, 1% NP-40; 2 hr at 4°C with anti-FLAG M2 or anti-HA; immunoblot
T1 sequence: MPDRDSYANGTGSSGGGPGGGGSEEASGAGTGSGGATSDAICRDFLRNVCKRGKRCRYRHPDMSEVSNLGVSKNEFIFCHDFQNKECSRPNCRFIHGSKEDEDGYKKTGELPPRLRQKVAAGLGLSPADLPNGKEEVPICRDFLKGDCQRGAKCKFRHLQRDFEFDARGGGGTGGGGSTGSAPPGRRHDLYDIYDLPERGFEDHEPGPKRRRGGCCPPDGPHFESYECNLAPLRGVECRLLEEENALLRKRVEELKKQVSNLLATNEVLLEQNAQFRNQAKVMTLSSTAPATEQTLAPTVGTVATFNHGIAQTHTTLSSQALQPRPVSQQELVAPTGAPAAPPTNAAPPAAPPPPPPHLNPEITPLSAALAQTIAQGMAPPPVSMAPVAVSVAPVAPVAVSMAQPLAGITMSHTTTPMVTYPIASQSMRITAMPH

[1] = biological target: T2, endogenous Zc3h10 (mouse (endogenous in BAT)) (UniProt Q8R205); test: co-IP; endogenous proteins, nuclear extracts of BAT of wild-type mice (also mice housed at room temperature or 4°C); Dot1l or Zc3h10 antibody and protein A/G agarose beads overnight at 4°C; immunoblot
T2 sequence: T1 sequence

binding (Flag-Zc3h10 (mouse))	binding [1]	Substance
binds		HA-Dot1l (from UniProt Q6XZL8 1-1540) (enzyme)
	binds	endogenous Dot1l (from UniProt Q6XZL8 1-1540) (enzyme)
